In patent US20100204053A1:
No constants are given. Whether binding was seen depends on the method and setting. In cells and extracts the contact can be indirect. Some results given as binding are weak or reduced against the parent protein; the word gives no strength.

The chains behind the UniProt entries cited, without tags or fusion partners.
UniProt A2A884: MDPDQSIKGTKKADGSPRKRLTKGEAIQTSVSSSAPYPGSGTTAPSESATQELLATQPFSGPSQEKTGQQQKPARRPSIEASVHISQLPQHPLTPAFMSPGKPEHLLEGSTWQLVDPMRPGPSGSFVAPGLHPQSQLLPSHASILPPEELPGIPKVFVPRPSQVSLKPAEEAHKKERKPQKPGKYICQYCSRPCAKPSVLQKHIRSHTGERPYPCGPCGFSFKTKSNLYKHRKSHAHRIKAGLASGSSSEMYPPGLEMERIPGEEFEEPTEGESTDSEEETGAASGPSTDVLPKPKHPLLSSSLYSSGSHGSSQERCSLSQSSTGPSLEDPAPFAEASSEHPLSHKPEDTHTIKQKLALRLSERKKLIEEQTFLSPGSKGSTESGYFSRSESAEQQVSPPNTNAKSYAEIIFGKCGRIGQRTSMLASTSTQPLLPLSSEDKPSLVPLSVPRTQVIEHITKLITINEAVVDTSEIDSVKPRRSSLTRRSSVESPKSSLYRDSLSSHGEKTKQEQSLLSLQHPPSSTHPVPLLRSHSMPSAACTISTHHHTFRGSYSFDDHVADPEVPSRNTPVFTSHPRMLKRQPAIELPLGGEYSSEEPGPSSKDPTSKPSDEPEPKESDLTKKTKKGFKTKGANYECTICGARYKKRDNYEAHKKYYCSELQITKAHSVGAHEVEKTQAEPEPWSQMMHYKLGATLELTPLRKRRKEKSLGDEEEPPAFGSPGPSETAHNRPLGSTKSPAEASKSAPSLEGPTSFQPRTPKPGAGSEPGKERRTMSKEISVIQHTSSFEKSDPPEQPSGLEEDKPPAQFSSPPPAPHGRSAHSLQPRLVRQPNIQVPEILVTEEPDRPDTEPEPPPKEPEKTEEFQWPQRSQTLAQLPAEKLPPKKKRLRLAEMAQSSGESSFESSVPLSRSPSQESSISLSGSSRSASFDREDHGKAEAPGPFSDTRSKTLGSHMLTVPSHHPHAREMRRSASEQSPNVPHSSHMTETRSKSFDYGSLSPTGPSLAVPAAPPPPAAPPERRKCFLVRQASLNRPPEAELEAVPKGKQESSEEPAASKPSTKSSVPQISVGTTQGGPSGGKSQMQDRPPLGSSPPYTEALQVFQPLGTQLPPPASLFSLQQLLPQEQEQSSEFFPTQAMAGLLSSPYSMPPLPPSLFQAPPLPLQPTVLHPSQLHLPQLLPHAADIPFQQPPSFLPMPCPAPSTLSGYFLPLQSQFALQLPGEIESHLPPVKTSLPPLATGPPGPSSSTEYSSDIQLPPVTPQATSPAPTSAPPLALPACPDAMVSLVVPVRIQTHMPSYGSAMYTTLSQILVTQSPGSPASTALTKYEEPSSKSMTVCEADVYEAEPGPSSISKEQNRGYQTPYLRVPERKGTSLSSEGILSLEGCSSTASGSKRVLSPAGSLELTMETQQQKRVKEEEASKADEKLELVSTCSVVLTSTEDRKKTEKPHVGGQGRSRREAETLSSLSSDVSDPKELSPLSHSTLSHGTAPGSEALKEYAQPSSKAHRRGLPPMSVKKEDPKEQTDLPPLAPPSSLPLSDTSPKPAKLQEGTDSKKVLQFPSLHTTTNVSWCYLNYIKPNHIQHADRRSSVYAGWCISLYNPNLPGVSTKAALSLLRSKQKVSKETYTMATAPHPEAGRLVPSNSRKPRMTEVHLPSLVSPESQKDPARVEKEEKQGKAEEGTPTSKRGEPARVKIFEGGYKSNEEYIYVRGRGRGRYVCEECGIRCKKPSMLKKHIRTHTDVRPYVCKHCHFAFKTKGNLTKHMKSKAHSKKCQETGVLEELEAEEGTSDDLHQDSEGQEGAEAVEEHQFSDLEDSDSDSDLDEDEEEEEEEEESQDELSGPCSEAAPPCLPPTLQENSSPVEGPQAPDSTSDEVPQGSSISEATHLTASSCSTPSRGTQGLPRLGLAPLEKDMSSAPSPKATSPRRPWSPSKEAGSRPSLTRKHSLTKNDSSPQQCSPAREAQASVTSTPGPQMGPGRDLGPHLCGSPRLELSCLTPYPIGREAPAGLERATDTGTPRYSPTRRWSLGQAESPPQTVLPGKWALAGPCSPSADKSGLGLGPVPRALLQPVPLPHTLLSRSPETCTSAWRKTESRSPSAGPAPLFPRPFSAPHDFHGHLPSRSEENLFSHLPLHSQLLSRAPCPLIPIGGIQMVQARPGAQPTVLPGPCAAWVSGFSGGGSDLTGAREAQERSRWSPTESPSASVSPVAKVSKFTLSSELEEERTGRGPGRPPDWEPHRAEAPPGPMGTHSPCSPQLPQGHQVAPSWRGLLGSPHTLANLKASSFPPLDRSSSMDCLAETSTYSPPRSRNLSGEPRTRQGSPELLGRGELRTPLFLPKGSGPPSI

Key:
[1] = biological target: endogenous Runx2 in MC3T3-E1 osteoblastic cells (UniProt Q08775); assay: restatement of the co-immunoprecipitation result with TGFβ treatment
[2] = biological target: endogenous Shn3 in MC3T3-E1 osteoblastic cells (UniProt A2A884); assay: co-immunoprecipitation of endogenous proteins (anti-Runx2 IP, Shn3 immunoblot) from differentiated MC3T3-E1 cells, with or without TGF-β

endogenous Shn3 in MC3T3-E1 osteoblastic cells (from UniProt A2A884 1-2348)
binding [1]: binds

endogenous Runx2 in MC3T3-E1 osteoblastic cells (from UniProt Q08775 1-528)
binding [2]: binds
